This test has as its target EIF3H-Flag (human) (UniProt O15372). In words: affinity purification with mass spectrometry; EIF3H-Flag or vector transfected in HEK293T for 24 h, 10 uM MG132 for 4 h, lysate immunoprecipitated with anti-FLAG M2 beads, LC-MS/MS.

Chains of the proteins cited; added tags and fusions are not shown.
UniProt O15372: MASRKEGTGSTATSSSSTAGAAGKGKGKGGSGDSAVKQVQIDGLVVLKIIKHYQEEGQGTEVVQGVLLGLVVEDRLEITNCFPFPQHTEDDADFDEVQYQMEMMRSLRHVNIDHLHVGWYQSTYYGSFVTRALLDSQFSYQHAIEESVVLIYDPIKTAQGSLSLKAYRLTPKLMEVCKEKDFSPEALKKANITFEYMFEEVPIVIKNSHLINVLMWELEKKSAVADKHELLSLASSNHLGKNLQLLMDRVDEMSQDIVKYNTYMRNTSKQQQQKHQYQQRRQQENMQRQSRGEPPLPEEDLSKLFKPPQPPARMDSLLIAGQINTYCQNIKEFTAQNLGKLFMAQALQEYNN
UniProt O95863: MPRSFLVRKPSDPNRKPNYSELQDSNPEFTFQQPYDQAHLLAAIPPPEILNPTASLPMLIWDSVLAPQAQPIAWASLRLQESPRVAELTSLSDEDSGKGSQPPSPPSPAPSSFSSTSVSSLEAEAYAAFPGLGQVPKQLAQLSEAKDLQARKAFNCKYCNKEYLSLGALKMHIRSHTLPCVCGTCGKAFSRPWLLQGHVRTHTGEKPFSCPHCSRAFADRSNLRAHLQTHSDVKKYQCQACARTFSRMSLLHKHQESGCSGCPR

Results are given in words; binding and its absence hold for the method and conditions named. In cells and extracts the contact can be indirect. Here binding means that the protein was enriched with, or labelled near, the bait; the list need not be complete.

For “endogenous Snail (from UniProt O95863 1-264)”, the binding entry is given as “binds”.

(Values after publication PMC7457539.)
